# Experimental data from patent publication US10568913B2, “Method for generating mature β-like cells” (The University of Western Australia, priority 2013, dated 2020).
# At least one structure is not confirmed: it was looked up by name or label, or the drawing left a doubt.
# Tested on: Ngn3+ progenitor-containing E-cad+ cells
# Experiment: Insulin-producing (MIPGFP+) cell differentiation from sorted E-cad+ cells of E15.5 MIPGFP mouse pancreas
# Assay type: cell-based
# Conditions: for promotion of MIPGFP+ insulin-producing cell differentiation by the molecule on its own: compound alone, without Nic, day 4 (FIG. 1g, 5a)
# Procedure: Approximately 7,500 E15.5 [at which the number of Ngn3^+ progenitors is peaked] mouse fetuses from both MIPGFP and Ngn3-GPF/RIP-DsRed lines were used for enrichment/purification of Ngn3^+ progenitors. Mouse pancreases were dissected under a stereoscope (Olympus, Tokyo, Japan). Eleven human fetal pancreases were collected from 18-22 week-fetuses (Table 1) and minced. Both mouse and human pancreases were enzymatically dissociated into single cells under aseptic conditions. […] After each incubation with antibodies, cells were washed twice with FACS buffer (0.1% bovine serum albumin in phosphate buffered saline) and finally re-suspended in this buffer containing 1 μg/ml propidium iodide (PI) or 4′,6-diamidino-2-phenylindole (DAPI) for sorting (FACSAria II, Becton Dickson Labware, Bedford). The purity of sorted cells was determined by post-sort analysis.
# Sorted β-cell progenitor-enriched cells or Ngn3^+ β-cell progenitors were differentiated in 96-, 12- or 6-well plates (BD Labware). […] Growth factor-reduced Matrigel (200 μg/ml, BD Biosciences) was overlayed onto cells in the presence of various potential regulators. Thyrotropin releasing hormone (TRH, 100 nM) was purchased from Auspep (Melbourne, Australia). […] Cultures were incubated in 10% CO2 90% air at 37° C., for up to 8 days.
# The number of β-like cells was directly quantified under a fluorescence microscope. To verify the accuracy of cell count, at least five randomly chosen fields per well were microphotographed under the inverse IX71 Olympus fluorescence microscope (Olympus, Tokyo, Japan) and the number of β-like cells determined with the Image Pro Plus software installed in the computer.
Compound,"effect on Nic-induced differentiation (co-culture with Nic 10 mM (FIG. 1g, 5, 13, 15))",promotion of MIPGFP+ insulin-producing cell differentiation by the molecule on its own
Nc1ncnc2c1ncn2[C@@H]1O[C@H](C[C@@H](N)CC[C@H](N)C(=O)O)[C@@H](O)[C@H]1O [sinefungin],suppressed or abolished,did not yield
CC1=C(/C=C/C(C)=C/C=C/C(C)=C/C(=O)O)C(C)(C)CCC1 [retinoic acid],,did not yield
